± gives the standard deviation of the averaged measurements. The list shows a part of the results, in another mix than the full data.

Amino acid sequences for entries named in this document (tags omitted). A change or cut given only in a name is not applied to a line headed by its entry.
UniProt Q6NXT6: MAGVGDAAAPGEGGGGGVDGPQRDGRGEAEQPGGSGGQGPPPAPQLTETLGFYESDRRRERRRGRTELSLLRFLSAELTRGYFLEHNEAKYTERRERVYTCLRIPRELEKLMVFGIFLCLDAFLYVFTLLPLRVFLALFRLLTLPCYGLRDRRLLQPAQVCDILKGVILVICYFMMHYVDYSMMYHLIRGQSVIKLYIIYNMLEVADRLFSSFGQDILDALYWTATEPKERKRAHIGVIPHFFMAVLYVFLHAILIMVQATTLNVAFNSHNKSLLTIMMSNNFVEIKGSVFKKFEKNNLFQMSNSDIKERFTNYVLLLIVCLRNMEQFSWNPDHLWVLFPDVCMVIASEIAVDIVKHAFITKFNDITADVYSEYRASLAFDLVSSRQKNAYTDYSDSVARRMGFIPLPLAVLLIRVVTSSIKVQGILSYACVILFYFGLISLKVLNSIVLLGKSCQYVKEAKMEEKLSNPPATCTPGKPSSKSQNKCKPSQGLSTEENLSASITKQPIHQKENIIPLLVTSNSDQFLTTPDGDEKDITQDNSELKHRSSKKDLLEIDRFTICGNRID
UniProt Q5TA50: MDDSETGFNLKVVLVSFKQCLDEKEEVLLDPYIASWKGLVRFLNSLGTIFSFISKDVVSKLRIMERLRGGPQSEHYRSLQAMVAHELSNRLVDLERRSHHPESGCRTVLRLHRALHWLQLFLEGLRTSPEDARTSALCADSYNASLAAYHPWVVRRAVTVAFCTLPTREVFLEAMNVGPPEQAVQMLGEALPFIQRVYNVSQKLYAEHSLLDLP
UniProt Q5VVJ2: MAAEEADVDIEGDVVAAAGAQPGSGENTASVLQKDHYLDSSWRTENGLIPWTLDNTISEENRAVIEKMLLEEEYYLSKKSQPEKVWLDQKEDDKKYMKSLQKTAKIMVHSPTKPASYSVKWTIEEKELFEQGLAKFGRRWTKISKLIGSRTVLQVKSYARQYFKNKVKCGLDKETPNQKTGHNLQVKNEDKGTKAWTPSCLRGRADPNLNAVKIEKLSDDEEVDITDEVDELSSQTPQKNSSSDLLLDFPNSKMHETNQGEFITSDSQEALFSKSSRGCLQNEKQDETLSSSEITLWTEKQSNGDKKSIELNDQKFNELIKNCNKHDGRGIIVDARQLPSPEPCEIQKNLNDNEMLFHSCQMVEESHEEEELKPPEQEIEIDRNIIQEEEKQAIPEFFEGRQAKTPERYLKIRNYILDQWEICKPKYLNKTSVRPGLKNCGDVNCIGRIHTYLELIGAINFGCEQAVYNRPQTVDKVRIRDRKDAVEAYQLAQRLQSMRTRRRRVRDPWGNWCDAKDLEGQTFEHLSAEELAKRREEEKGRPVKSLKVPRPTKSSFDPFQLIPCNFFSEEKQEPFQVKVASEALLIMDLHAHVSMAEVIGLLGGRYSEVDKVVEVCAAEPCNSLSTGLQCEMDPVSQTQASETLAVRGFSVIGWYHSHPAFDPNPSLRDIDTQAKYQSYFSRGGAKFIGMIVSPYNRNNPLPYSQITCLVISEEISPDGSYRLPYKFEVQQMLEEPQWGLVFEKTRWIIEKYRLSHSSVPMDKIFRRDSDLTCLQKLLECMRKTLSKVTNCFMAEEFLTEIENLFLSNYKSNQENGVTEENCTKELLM
UniProt Q66K14, whole entry: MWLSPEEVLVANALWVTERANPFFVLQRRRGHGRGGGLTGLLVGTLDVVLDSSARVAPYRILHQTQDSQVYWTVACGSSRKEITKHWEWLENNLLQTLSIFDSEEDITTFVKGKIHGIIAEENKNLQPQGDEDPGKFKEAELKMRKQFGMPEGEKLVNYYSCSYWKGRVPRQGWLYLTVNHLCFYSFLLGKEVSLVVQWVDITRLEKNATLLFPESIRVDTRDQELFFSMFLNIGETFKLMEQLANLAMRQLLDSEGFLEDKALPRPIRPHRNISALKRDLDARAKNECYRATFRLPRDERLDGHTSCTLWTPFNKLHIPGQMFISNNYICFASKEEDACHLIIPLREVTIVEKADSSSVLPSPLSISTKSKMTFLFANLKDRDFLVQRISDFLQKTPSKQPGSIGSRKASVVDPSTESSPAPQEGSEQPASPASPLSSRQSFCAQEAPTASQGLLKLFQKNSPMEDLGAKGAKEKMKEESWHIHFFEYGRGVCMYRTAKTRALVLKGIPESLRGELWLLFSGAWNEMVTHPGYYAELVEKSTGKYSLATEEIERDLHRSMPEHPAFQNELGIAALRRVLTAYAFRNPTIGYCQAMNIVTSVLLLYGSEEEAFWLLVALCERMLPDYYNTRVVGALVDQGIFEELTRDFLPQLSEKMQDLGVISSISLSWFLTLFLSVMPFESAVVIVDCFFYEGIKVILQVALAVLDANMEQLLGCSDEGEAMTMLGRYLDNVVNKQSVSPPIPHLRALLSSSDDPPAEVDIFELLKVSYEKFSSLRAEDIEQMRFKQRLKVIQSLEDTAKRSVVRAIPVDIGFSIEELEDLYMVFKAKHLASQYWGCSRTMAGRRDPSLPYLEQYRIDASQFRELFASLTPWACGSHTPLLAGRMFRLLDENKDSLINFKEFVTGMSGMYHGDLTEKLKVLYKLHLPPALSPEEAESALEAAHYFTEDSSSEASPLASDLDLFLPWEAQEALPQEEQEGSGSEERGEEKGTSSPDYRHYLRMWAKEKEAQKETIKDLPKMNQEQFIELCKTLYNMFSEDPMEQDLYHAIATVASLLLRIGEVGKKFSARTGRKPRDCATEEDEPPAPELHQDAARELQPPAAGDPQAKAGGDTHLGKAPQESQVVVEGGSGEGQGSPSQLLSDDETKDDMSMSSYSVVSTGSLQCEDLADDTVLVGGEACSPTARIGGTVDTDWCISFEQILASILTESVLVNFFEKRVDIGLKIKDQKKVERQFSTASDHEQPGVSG
UniProt Q5VZF2: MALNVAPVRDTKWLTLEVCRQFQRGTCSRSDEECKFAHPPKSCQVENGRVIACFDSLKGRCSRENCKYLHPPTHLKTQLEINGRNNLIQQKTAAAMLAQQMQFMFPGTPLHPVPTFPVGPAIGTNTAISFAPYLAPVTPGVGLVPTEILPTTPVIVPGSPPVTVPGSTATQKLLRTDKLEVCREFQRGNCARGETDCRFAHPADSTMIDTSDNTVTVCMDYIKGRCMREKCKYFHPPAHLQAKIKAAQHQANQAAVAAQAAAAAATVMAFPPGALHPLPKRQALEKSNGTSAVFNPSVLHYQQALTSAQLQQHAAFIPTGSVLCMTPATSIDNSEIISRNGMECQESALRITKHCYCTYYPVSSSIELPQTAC
UniProt Q5EBM0: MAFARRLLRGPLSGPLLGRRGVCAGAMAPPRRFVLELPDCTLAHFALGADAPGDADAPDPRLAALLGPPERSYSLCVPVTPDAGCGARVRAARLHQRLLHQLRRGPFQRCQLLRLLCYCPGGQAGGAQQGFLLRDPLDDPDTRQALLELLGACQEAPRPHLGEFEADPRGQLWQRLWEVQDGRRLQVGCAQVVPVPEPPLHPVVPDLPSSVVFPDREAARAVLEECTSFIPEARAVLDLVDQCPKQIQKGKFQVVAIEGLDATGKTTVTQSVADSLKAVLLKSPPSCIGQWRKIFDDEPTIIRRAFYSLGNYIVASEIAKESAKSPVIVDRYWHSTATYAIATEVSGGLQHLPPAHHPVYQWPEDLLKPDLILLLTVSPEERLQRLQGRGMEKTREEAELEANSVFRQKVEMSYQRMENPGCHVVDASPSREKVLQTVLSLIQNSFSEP
UniProt Q4VC31: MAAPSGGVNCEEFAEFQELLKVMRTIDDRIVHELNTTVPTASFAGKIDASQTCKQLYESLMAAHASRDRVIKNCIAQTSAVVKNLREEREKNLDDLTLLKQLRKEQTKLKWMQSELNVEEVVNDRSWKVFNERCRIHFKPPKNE
UniProt Q5W0V3: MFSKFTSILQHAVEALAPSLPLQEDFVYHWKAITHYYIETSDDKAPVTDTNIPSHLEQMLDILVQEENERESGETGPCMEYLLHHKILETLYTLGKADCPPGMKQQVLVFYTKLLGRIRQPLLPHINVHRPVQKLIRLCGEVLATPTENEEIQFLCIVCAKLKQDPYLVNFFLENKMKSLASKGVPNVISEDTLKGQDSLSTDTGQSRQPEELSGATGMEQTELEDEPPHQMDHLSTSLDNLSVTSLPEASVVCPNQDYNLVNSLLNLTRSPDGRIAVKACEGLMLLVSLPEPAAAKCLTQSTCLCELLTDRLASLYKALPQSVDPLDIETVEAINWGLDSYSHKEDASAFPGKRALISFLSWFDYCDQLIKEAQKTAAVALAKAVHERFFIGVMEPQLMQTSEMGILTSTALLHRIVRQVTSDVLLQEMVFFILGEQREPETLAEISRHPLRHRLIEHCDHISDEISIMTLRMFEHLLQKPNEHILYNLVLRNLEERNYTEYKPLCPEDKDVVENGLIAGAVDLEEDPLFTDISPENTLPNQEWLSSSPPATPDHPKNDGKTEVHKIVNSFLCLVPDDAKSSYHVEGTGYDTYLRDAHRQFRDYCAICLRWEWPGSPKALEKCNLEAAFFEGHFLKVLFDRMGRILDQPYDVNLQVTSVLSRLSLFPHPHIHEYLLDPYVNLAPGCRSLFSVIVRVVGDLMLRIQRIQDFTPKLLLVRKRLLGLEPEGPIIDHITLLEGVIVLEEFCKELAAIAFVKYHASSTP
UniProt Q6JQN1: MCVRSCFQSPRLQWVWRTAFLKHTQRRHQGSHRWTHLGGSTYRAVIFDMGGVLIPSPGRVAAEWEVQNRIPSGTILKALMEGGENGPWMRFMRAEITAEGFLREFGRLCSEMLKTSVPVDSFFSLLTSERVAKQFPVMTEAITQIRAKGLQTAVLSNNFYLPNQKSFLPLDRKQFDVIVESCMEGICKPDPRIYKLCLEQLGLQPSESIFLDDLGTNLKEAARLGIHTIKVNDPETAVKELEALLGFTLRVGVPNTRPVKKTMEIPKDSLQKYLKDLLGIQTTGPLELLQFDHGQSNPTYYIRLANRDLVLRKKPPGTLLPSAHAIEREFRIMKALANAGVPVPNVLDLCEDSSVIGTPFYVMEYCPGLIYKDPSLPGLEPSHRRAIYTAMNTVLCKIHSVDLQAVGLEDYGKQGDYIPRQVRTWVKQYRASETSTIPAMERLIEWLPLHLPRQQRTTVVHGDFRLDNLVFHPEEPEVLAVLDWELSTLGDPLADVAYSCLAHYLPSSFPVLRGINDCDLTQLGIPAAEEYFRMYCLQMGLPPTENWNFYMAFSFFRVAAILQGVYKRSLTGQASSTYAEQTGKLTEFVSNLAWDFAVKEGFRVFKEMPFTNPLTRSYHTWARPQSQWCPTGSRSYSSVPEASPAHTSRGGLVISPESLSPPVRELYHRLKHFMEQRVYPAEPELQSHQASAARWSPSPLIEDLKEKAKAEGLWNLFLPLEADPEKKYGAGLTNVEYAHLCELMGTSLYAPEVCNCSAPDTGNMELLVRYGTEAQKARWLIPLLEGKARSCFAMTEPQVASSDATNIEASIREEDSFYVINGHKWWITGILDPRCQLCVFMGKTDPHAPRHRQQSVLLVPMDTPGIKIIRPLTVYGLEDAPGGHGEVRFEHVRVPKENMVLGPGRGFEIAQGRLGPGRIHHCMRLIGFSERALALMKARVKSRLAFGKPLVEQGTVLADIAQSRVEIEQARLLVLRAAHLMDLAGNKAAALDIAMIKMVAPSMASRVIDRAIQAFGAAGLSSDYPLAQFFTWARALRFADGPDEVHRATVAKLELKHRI
UniProt Q6P6B7: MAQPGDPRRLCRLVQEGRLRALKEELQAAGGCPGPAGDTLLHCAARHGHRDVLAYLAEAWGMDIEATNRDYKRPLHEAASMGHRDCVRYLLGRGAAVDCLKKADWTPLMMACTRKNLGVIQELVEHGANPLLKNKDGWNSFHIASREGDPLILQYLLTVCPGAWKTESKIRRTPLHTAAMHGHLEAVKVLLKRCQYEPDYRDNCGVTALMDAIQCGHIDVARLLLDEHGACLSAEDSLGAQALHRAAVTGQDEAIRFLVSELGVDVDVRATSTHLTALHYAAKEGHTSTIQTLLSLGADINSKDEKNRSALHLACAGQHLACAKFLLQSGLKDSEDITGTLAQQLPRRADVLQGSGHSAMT
UniProt Q6ICL3: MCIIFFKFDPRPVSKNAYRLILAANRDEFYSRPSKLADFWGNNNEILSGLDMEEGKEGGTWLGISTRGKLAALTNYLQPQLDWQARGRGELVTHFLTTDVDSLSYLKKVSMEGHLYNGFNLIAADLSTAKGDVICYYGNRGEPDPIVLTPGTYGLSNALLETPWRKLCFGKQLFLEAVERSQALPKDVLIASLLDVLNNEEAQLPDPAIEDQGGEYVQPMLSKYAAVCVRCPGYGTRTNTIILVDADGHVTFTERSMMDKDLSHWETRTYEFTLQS
UniProt Q6NXT1: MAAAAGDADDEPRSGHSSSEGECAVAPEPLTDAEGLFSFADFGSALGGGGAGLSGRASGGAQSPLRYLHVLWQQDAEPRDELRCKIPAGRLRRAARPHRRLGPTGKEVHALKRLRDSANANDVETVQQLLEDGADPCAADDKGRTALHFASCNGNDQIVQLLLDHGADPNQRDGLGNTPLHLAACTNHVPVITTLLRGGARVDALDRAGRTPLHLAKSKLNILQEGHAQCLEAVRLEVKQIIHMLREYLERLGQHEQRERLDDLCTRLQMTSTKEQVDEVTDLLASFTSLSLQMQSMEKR

We go through 23 targets from the supplement of paper PMC6411743.

Compound in this experiment: Nc1ncnc2c1ncn2[C@@H]1O[C@H](COP(=O)(O)OP(=O)(O)OP(=O)(O)O)[C@@H](O)[C@H]1O [adenosine triphosphate]
The experiment is described as follows: NP40-soluble protein abundance relative to vehicle (solubility fold change) (ratio); higher = more soluble protein in presence of ATP. An outline of the steps: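 Crude Jurkat lysate, prepared by Dounce homogenisation, was exposed to eight concentrations from 0.1 to 10 mM for 10 min at room temperature and then 3 min at 37 °C. Solubilisation used 0.8% NP40 with benzonase for 60 min at 4 °C, followed by ultracentrifugation and TMT labelling of the supernatant for LC-MS/MS. After vsn normalisation of intensities, each value is the fold change against the detergent-processed vehicle within each replicate, across three independent experiments.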

Take LPCAT4 (UniProt Q643R3): the NP40-soluble protein abundance runs as follows: (concentration: 1mM) 1.02 ± 0.084; (concentration: 2mM) 0.966 ± 0.067; (concentration: 4mM) 1.03 ± 0.07; (concentration: 6mM) 0.956 ± 0.065; (concentration: 8mM) 0.998 ± 0.033; (concentration: 10mM) 1.02 ± 0.072.
For TAPT1 (UniProt Q6NXT6), the NP40-soluble protein abundance turned out to be 0.996 ± 0.064 (concentration: 1mM); 1.03 ± 0.054 (concentration: 2mM); 0.983 ± 0.06 (concentration: 4mM); 0.957 ± 0.085 (concentration: 6mM); 0.998 ± 0.04 (concentration: 8mM); 0.971 ± 0.063 (concentration: 10mM).
As to CPTP (UniProt Q5TA50), the NP40-soluble protein abundance is, setting by setting: (concentration: 1mM) 0.962 ± 0.07; (concentration: 2mM) 0.984 ± 0.075; (concentration: 4mM) 0.981 ± 0.04; (concentration: 6mM) 0.913 ± 0.088; (concentration: 8mM) 0.9748 ± 0.0052; (concentration: 10mM) 0.9193 ± 0.0056.
As to MRPL54 (UniProt Q6P161), the NP40-soluble protein abundance is, setting by setting: (concentration: 1mM) 1.04 ± 0.084; (concentration: 2mM) 0.919 ± 0.14; (concentration: 4mM) 1.18 ± 0.091; (concentration: 6mM) 1.11 ± 0.17; (concentration: 8mM) 1.11 ± 0.068; (concentration: 10mM) 0.993 ± 0.077.
For the target MYSM1 (UniProt Q5VVJ2), the NP40-soluble protein abundance (concentration: 1mM) worked out at 0.9711 ± 0.0075; the NP40-soluble protein abundance (concentration: 2mM) came to 0.979 ± 0.041; the NP40-soluble protein abundance (concentration: 4mM) was 0.991 ± 0.037; the NP40-soluble protein abundance (concentration: 6mM) was determined as 0.958 ± 0.055; the NP40-soluble protein abundance (concentration: 8mM) is 0.97 ± 0.061; the NP40-soluble protein abundance (concentration: 10mM) is 0.943 ± 0.039.
XAF1 (UniProt Q6GPH4): the NP40-soluble protein abundance runs as follows: (concentration: 1mM) 1 ± 0.023; (concentration: 2mM) 1 ± 0.042; (concentration: 4mM) 0.998 ± 0.052; (concentration: 6mM) 0.995 ± 0.047; (concentration: 8mM) 1.02 ± 0.041; (concentration: 10mM) 0.997 ± 0.041.
In the case of DCAF15 (UniProt Q66K64), the NP40-soluble protein abundance (concentration: 1mM) was determined as 1.1 ± 0.2; the NP40-soluble protein abundance (concentration: 2mM) came to 1.13 ± 0.22; the NP40-soluble protein abundance (concentration: 4mM) was found to be 1.11 ± 0.13; the NP40-soluble protein abundance (concentration: 6mM) was found to be 1.18 ± 0.21; the NP40-soluble protein abundance (concentration: 8mM) is 1.01 ± 0.067; the NP40-soluble protein abundance (concentration: 10mM) amounted to 1.07 ± 0.15.
With TTC27 (UniProt Q6P3X3), the NP40-soluble protein abundance (concentration: 1mM) came out at 0.994 ± 0.089; the NP40-soluble protein abundance (concentration: 2mM) is 0.99 ± 0.043; the NP40-soluble protein abundance (concentration: 4mM) was found to be 0.984 ± 0.029; the NP40-soluble protein abundance (concentration: 6mM) worked out at 0.953 ± 0.12; the NP40-soluble protein abundance (concentration: 8mM) came to 1 ± 0.1; the NP40-soluble protein abundance (concentration: 10mM) was 0.98 ± 0.051.
Turning to UniProt Q66K14 and related entries, the NP40-soluble protein abundance stood at 0.972 ± 0.034 (concentration: 1mM); 0.982 ± 0.019 (concentration: 2mM); 0.976 ± 0.021 (concentration: 4mM); 0.963 ± 0.027 (concentration: 6mM); 0.963 ± 0.047 (concentration: 8mM); 0.966 ± 0.025 (concentration: 10mM).
Consider “Q5JSC0 and related entries (UniProt Q5VZF2)”, for which the NP40-soluble protein abundance is, setting by setting: (concentration: 1mM) 1.044 ± 0.0042; (concentration: 2mM) 0.9886 ± 0.0029; (concentration: 4mM) 0.995 ± 0.072; (concentration: 6mM) 0.993 ± 0.1; (concentration: 8mM) 0.984 ± 0.04; (concentration: 10mM) 0.957 ± 0.041.
With CMPK2 (UniProt Q5EBM0), the NP40-soluble protein abundance runs as follows: (concentration: 1mM) 1.03 ± 0.05; (concentration: 2mM) 1.04 ± 0.059; (concentration: 4mM) 1.02 ± 0.048; (concentration: 6mM) 0.978 ± 0.07; (concentration: 8mM) 1 ± 0.057; (concentration: 10mM) 0.994 ± 0.044.
For the target UniProt Q5TCQ9 and related entries, the NP40-soluble protein abundance is 1.11 ± 0.18 (concentration: 1mM); 1.04 ± 0.21 (concentration: 2mM); 1.05 ± 0.2 (concentration: 4mM); 1.11 ± 0.25 (concentration: 6mM); 1.03 ± 0.29 (concentration: 8mM); 1.07 ± 0.16 (concentration: 10mM).
Regarding CCDC58 (UniProt Q4VC31), the NP40-soluble protein abundance (concentration: 1mM) turned out to be 0.936 ± 0.093; the NP40-soluble protein abundance (concentration: 2mM) turned out to be 0.938 ± 0.05; the NP40-soluble protein abundance (concentration: 4mM) stood at 0.936 ± 0.061; the NP40-soluble protein abundance (concentration: 6mM) is 0.982 ± 0.057; the NP40-soluble protein abundance (concentration: 8mM) is 0.904 ± 0.013; the NP40-soluble protein abundance (concentration: 10mM) amounted to 0.858 ± 0.067.
Take UniProt Q4VC05 and related entries: the NP40-soluble protein abundance turned out to be 0.888 ± 0.15 (concentration: 1mM); 0.878 ± 0.12 (concentration: 2mM); 0.791 ± 0.029 (concentration: 4mM); 0.93 ± 0.15 (concentration: 6mM); 0.787 ± 0.038 (concentration: 8mM); 0.827 ± 0.13 (concentration: 10mM).
As for FAM160B1 (UniProt Q5W0V3), the NP40-soluble protein abundance reads like this: (concentration: 1mM) 0.964 ± 0.081; (concentration: 2mM) 1.01 ± 0.06; (concentration: 4mM) 0.967 ± 0.018; (concentration: 6mM) 0.946 ± 0.061; (concentration: 8mM) 0.985 ± 0.025; (concentration: 10mM) 0.974 ± 0.013.
Turning to “Q5JY65 and related entries (UniProt Q9BZJ0)”, the NP40-soluble protein abundance (concentration: 1mM) worked out at 1.04 ± 0.062; the NP40-soluble protein abundance (concentration: 2mM) was determined as 1.01 ± 0.034; the NP40-soluble protein abundance (concentration: 4mM) amounted to 1.01 ± 0.025; the NP40-soluble protein abundance (concentration: 6mM) was 0.985 ± 0.045; the NP40-soluble protein abundance (concentration: 8mM) came out at 1.01 ± 0.034; the NP40-soluble protein abundance (concentration: 10mM) came out at 1.04 ± 0.068.
Take UniProt Q6JQN1 and related entries: the NP40-soluble protein abundance by setting is: (concentration: 1mM) 0.979 ± 0.034; (concentration: 2mM) 0.93 ± 0.099; (concentration: 4mM) 0.977 ± 0.078; (concentration: 6mM) 0.918 ± 0.047; (concentration: 8mM) 0.947 ± 0.061; (concentration: 10mM) 0.975 ± 0.056.
With UniProt Q5JPF3, the NP40-soluble protein abundance runs as follows: (concentration: 1mM) 0.988 ± 0.066; (concentration: 2mM) 1.01 ± 0.056; (concentration: 4mM) 1.093 ± 0.01; (concentration: 6mM) 0.989 ± 0.059; (concentration: 8mM) 0.992 ± 0.084; (concentration: 10mM) 1.04 ± 0.13.
As to UniProt Q5T5Y3 and related entries, the NP40-soluble protein abundance by setting is: (concentration: 1mM) 1.01 ± 0.062; (concentration: 2mM) 1 ± 0.049; (concentration: 4mM) 1.01 ± 0.041; (concentration: 6mM) 1.04 ± 0.057; (concentration: 8mM) 0.999 ± 0.059; (concentration: 10mM) 1 ± 0.05.
Consider UniProt Q53H47 and related entries, for which the NP40-soluble protein abundance worked out at 1.02 ± 0.014 (concentration: 1mM); 0.9992 ± 0.0054 (concentration: 2mM); 1.01 ± 0.025 (concentration: 4mM); 1.02 ± 0.042 (concentration: 6mM); 0.977 ± 0.029 (concentration: 8mM); 1 ± 0.022 (concentration: 10mM).
Regarding ANKRD16 (UniProt Q6P6B7), the NP40-soluble protein abundance turned out to be 0.97 ± 0.091 (concentration: 1mM); 1.05 ± 0.11 (concentration: 2mM); 1.01 ± 0.023 (concentration: 4mM); 0.942 ± 0.1 (concentration: 6mM); 0.921 ± 0.11 (concentration: 8mM); 0.958 ± 0.08 (concentration: 10mM).
On to UniProt Q6ICL3 and related entries, for which the NP40-soluble protein abundance is 1.01 ± 0.053 (concentration: 1mM); 0.947 ± 0.097 (concentration: 2mM); 1.03 ± 0.13 (concentration: 4mM); 0.967 ± 0.13 (concentration: 6mM); 0.976 ± 0.11 (concentration: 8mM); 0.959 ± 0.15 (concentration: 10mM).
In the case of ANKRD54 (UniProt Q6NXT1), the NP40-soluble protein abundance is, setting by setting: (concentration: 1mM) 0.946 ± 0.12; (concentration: 2mM) 0.951 ± 0.067; (concentration: 4mM) 0.976 ± 0.075; (concentration: 6mM) 0.928 ± 0.073; (concentration: 8mM) 0.914 ± 0.055; (concentration: 10mM) 0.924 ± 0.071.
